Test results: patent publication US8153679B2, “Radiolabelled inhibitors of the glycine 1 transporter” (Hoffmann-La Roche Inc., priority 2008, dated 2012)
Some of these results come from one statement about several compounds together.

Tested on: glycine transporter 1 (GlyT1)
Assay: In vivo PET imaging in the baboon
Design: species or system baboon (papio anubis)
Details: intravenous 1 minute bolus, PET 0 to 90 minutes
Protocol: 1) PET imaging with [^11C-][2-Isopropoxy-5-methanesulfonyl-phenyl)-[5-(tetrahydro-pyran-4-yl)-1,3-dihydro-isoindol-2-yl]-methanone] and [^11C]-5-Methanesulfonyl-2-((S)-2,2,2-trifluoro-1-methyl-ethoxy)-phenyl]-[5-(tetrahydro-pyran-4-yl)-1,3-dihydro-isoindol-2-yl]-methanone
The experiments described below were carried out in male baboons (papio anubis). Animals were fasted for 12 hours prior to the PET study. Baboons were initially sedated intramuscularly with Ketamine hydrochloride with restraint dosages of 5-7 mg/kg to achieve a light plane of anesthesia and then maintained on continuous Propofol intravenous infusion @ […] (DIPRIVAN® Injectable Emulsion). Circulatory volume was maintained by infusion of isotonic saline. A femoral arterial catheter was inserted for blood sampling. Physiological vital signs including heart rate, ECG, blood pressure (Spacelabs Monitor, Issaquah, Wash., USA) and oxygen saturation (Nellcor OxiMax® N-600™ Pulse Oximeter, Pleasanton, Calif., USA) were continuously monitored throughout the study. The animal was positioned in an ECAT HRRT® brain PET scanner (High Resolution Research Tomograph, CPS Innovations, Inc., Knoxville, Tenn.). The head of the animal was fitted with a thermoplastic mask that was attached to a head holder for reproducible fixation. […]

time of peak brain uptake after administration (time activity curves) | SMILES
20 to 30 min | CC(C)Oc1ccc(S([11CH3])(=O)=O)cc1C(=O)N1Cc2ccc(C3CCOCC3)cc2C1 [Example 4, [^11C-methyl]-(2-Isopropoxy-5-methanesulfonyl-phenyl)-[5-(tetrahydro-pyran-4-yl)-1,3-dihydro-isoindol-2-yl]-methanone]
20 to 30 min | C[C@H](Oc1ccc(S([11CH3])(=O)=O)cc1C(=O)N1Cc2ccc(C3CCOCC3)cc2C1)C(F)(F)F [Example 2, [^11C-methyl]-[5-Methanesulfonyl-2-((S)-2,2,2-trifluoro-1-methyl-ethoxy)-phenyl]-[5-(tetrahydro-pyran-4-yl)-1,3-dihydro-isoindol-2-yl]-methanone]
